Measured data: PubChem BioAssay AID1259405 (NCATS, 2018)
Screen: 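Knock-downs that lift recombinant protein yield in hamster ovary cells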 (primary screen). Cell system: Chinese hamster CHO-K1 ovary cells with stable secreted eGFP expression. Knock-down reagent: single siRNA against mouse genes, 0.8 pmol siRNA per well (2 µl of 400 nM stock). Duration: 3 days. Read-out: 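Per-well intracellular GFP measured by laser scanning cytometry, plus viability from ATP luminescence, each relative to plate median of non-targeting control wells, in %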. Direction: GFP, % of control: higher = more GFP per well, higher productivity; viability (ATP), % of control: higher = more viable cells (more ATP). Hit rule: 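Called active when intracellular GFP, relative to negative control, is at or above 120%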.
In all, the deposit lists about 50,000 reagents; below is a random part of them. Of all reagents, about 4,000 (8%) were called active. 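Mouse siRNA library applied to hamster cells; one well for each siRNA.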 The numbers tell different reagents against one gene apart. No sequences are given here.

| target gene | siRNA no. | GFP, % of control | viability (ATP), % of control | Call |
| --- | --- | --- | --- | --- |
| Agtr2 (GeneID 11609) | 1 | 88.1 | 70.5 | inactive |
| Agtr2 (GeneID 11609) | 2 | 55.2 | 51.7 | inactive |
| Agtr2 (GeneID 11609) | 3 | 66.9 | 56.5 | inactive |
| Ppwd1 (GeneID 238831) | 1 | 60.3 | 85.9 | inactive |
| Ppwd1 (GeneID 238831) | 2 | 76.8 | 87.7 | inactive |
| Ppwd1 (GeneID 238831) | 3 | 71.1 | 80.2 | inactive |
| Or8d1 (GeneID 18324) | 1 | 32.1 | 35.4 | inactive |
| Or8d1 (GeneID 18324) | 2 | 61.8 | 83.3 | inactive |
| Or8d1 (GeneID 18324) | 3 | 59.1 | 56 | inactive |
| Scp2 (GeneID 20280) | 1 | 50.8 | 42.9 | inactive |
| Scp2 (GeneID 20280) | 2 | 68.4 | 80.8 | inactive |
| Scp2 (GeneID 20280) | 3 | 38.7 | 48.4 | inactive |
| Tbx18 (GeneID 76365) | 1 | 86.3 | 111 | inactive |
| Tbx18 (GeneID 76365) | 2 | 98.6 | 85.2 | inactive |
| Tbx18 (GeneID 76365) | 3 | 72.7 | 79.5 | inactive |
| St8sia6 (GeneID 241230) | 1 | 121 | 83.6 | active |
| St8sia6 (GeneID 241230) | 2 | 71.9 | 81.4 | inactive |
| St8sia6 (GeneID 241230) | 3 | 58.4 | 63.8 | inactive |
| Ppnr (GeneID 26930) | 1 | 79.4 | 96.2 | inactive |
| Ppnr (GeneID 26930) | 2 | 79.4 | 52.2 | inactive |
| Ppnr (GeneID 26930) | 3 | 82.6 | 107 | inactive |
| H2-DMb1 (GeneID 14999) | 1 | 79.8 | 69.7 | inactive |
| H2-DMb1 (GeneID 14999) | 2 | 88.3 | 74.5 | inactive |
| H2-DMb1 (GeneID 14999) | 3 | 68.1 | 63.5 | inactive |
| Ube2q1 (GeneID 70093) | 1 | 124 | 104 | active |
| Ube2q1 (GeneID 70093) | 2 | 72.7 | 79.5 | inactive |
| Ube2q1 (GeneID 70093) | 3 | 107 | 123 | inactive |
| Zrsr2-ps1 (GeneID 22183) | 1 | 58.2 | 74 | inactive |
| Zrsr2-ps1 (GeneID 22183) | 2 | 79.4 | 82.1 | inactive |
| Pmm1 (GeneID 29858) | 1 | 123 | 85.1 | active |
| Pmm1 (GeneID 29858) | 2 | 73 | 70 | inactive |
| Pmm1 (GeneID 29858) | 3 | 85.9 | 80.8 | inactive |
| Tsr3 (GeneID 68327) | 1 | 98.3 | 113 | inactive |
| Tsr3 (GeneID 68327) | 2 | 57.9 | 104 | inactive |
| Tsr3 (GeneID 68327) | 3 | 136 | 121 | active |

5 consecutive records from above, for reference:
| target gene | siRNA no. | GFP, % of control | viability (ATP), % of control | Call |
| --- | --- | --- | --- | --- |
| St8sia6 (GeneID 241230) | 3 | 58.4 | 63.8 | inactive |
| Ppnr (GeneID 26930) | 1 | 79.4 | 96.2 | inactive |
| Ppnr (GeneID 26930) | 2 | 79.4 | 52.2 | inactive |
| Ppnr (GeneID 26930) | 3 | 82.6 | 107 | inactive |
| H2-DMb1 (GeneID 14999) | 1 | 79.8 | 69.7 | inactive |
